This data set is described as follows: Detection level of contrast tags by dual energy micro-CT. The conditions noted are these: for minimal detected concentration: in water.

Consider `[Gd]` [Gadolinium], for which, under “Beam E 35 keV”, the “HU at minimal detected concentration” value is 17 ± 3.5 HU and the minimal detected concentration came to 0.05 mg/mL. For the setting “Beam E 85 keV”, the “HU at minimal detected concentration” value is recorded as 38 ± 8.8 HU and the minimal detected concentration was determined as 0.1 mg/mL.
For Iodine, in that order: 10 ± 3.5 HU, 0.05 mg/mL, 15 ± 8.8 HU and 0.5 mg/mL.

The record behind these values is patent publication US11344634B2, “Activity based probe and uses thereof for imaging” (Yissum Research Development Company of the Hebrew …, priority 2016, dated 2022).
